In paper PMC5693852:
No constants are given. Whether binding was seen depends on the method and setting. Binding seen in cells or lysates may run through a third protein. Some binding calls cover weakened binding; strength is not graded here.

Molecular target: T1, JNK-interacting protein 3 (JIP3) (mouse (endogenous in bone marrow-derived eosinophils of B6 mice)) (UniProt Q9ESN9)
T1 sequence: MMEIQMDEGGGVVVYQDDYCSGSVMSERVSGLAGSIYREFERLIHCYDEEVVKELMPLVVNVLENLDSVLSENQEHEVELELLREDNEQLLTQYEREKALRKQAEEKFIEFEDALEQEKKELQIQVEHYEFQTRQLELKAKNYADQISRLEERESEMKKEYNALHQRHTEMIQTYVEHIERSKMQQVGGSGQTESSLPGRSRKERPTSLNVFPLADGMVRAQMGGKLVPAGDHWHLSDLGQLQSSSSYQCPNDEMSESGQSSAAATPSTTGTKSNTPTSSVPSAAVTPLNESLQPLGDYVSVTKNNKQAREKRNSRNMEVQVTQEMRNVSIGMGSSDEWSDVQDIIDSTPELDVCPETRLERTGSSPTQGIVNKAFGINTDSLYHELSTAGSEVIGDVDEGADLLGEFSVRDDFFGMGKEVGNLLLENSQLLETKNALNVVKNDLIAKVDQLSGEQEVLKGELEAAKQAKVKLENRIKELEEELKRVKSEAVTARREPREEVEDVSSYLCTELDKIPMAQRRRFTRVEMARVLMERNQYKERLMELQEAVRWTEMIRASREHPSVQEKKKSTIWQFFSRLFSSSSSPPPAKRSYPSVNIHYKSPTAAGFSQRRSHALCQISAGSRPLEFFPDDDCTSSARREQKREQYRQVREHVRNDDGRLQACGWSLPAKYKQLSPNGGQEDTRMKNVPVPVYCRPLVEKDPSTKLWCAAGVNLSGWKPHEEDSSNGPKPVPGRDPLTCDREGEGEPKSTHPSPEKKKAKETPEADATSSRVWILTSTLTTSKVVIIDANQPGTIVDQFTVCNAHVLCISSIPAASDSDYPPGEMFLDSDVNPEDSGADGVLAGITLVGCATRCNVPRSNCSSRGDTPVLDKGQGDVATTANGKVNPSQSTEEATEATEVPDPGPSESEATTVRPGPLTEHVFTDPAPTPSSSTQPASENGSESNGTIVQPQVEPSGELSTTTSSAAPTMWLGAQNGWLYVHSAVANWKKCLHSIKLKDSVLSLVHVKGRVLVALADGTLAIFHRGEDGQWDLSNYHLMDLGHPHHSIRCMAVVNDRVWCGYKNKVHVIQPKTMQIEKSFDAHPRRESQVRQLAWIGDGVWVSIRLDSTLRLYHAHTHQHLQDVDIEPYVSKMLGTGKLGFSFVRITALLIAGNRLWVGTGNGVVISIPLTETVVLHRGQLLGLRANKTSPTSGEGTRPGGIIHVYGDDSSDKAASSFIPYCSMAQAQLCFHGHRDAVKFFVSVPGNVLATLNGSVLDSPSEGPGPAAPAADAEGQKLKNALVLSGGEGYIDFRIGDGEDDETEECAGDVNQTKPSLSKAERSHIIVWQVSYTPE
Experiment: co-IP; lysates of B6 and Slpi-/- BMEos (5 x 10^6 cells; 1.0% NP-40, 50 mM HEPES pH 7.4, 150 mM NaCl) at the steady state, precleaned, precipitated with mouse anti-JIP3 (F-6) or mouse IgG1 isotype control and Dynabeads protein G; blotted for JIP3 and SLPI

- binding: binds
B1: secretory leukoprotease inhibitor (SLPI) (protein, UniProt P97430 26-131)
chain: GKNDAIKIGACPAKKPAQCLKLEKPQCRTDWECPGKQRCCQDACGSKCVNPVPIRKPVWRKPGRCVKTQARCMMLNPPNVCQRDGQCDGKYKCCEGICGKVCLPPM
